Source: paper PMC8315068
These are yes or no findings as the source states them, for the method shown. In cells and extracts the contact can be indirect. A yes stands for co-enrichment or nearness to the bait. Other partners may have been found.

The chains behind the UniProt entries cited, without tags or fusion partners.
UniProt Q15672: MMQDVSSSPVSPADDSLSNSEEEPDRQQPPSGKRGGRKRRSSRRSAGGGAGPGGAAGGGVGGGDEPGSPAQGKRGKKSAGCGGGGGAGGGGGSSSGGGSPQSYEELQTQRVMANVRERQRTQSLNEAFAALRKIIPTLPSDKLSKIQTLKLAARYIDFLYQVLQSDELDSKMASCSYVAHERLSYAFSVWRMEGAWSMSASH
UniProt P40763: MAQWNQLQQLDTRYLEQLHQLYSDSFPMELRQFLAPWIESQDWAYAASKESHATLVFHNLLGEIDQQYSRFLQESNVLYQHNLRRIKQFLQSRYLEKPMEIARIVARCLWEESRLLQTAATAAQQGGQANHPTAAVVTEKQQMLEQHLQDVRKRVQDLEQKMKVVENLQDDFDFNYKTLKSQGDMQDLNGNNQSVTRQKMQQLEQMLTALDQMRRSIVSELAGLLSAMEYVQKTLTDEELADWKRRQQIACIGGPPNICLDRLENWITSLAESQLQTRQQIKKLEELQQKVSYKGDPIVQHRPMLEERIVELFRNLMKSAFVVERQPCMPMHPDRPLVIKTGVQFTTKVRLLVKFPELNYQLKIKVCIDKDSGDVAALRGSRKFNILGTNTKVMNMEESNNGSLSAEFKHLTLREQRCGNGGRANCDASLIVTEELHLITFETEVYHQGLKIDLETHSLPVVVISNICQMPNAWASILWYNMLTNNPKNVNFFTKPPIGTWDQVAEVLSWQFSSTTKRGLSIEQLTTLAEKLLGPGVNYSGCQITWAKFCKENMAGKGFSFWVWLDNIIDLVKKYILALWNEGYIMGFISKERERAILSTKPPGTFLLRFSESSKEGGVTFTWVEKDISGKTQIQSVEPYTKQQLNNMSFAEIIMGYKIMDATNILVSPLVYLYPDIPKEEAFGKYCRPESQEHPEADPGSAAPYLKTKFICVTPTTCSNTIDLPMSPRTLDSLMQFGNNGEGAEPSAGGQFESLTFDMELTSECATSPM
UniProt P04150: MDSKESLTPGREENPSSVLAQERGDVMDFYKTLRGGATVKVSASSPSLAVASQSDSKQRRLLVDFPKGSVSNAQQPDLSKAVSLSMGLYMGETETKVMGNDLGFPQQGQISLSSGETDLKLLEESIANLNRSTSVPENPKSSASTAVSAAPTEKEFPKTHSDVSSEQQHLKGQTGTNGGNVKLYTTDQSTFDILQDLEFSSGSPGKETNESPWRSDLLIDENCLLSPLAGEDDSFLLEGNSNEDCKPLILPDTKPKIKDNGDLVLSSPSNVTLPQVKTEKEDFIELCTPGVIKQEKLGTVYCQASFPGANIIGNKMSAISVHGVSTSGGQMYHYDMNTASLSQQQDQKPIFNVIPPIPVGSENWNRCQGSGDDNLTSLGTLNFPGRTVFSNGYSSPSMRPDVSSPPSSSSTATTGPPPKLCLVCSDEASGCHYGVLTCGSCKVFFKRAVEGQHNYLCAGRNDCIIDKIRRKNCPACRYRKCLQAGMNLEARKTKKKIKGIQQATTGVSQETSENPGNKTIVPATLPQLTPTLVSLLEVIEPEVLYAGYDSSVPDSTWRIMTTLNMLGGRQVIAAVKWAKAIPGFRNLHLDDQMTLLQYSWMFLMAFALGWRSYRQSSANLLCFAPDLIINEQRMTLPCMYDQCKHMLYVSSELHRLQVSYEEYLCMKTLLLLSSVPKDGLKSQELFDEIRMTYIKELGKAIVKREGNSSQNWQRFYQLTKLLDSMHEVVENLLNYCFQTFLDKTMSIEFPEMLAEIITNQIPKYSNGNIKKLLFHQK

Assays:
[1] = biological target: Twist1 protein (TW1), endogenous in cells isolated from human colon tissue (human (endogenous in colon tissue cells of patients)) (UniProt Q15672); experiment: affinity purification with mass spectrometry; immunoprecipitation with an anti-TW1 Ab as bait from protein extracts of colon neutrophils of CR and CS UC patients; precipitated complexes analysed by MS
[2] = biological target: STAT3 (Signal Transducer and Activator of Transcription-3), endogenous in human colon neutrophils (human (endogenous in colon neutrophils of UC patients)) (UniProt P40763); experiment: affinity purification with mass spectrometry; anti-STAT3 Ab as bait, protein extracts of colon neutrophils of UC patients with CR; precipitated proteins analysed by MS

Molecule: glucocorticoid receptor (GR)α, endogenous in cells isolated from human colon tissue (from UniProt P04150 1-777)
- binding [1]: binds

B1: Ras Protein Activator Like 1 (RASAL1), endogenous in human colon neutrophils (protein, UniProt O95294 1-804)
chain: MAKSSSLNVRVVEGRALPAKDVSGSSDPYCLVKVDDEVVARTATVWRSLGPFWGEEYTVHLPLDFHQLAFYVLDEDTVGHDDIIGKISLSREAITADPRGIDSWINLSRVDPDAEVQGEICLSVQMLEDGQGRCLRCHVLQARDLAPRDISGTSDPFARVFWGSQSLETSTIKKTRFPHWDEVLELREMPGAPSPLRVELWDWDMVGKNDFLGMVEFSPKTLQQKPPKGWFRLLPFPRAEEDSGGNLGALRVKVRLIEDRVLPSQCYQPLMELLMESVQGPAEEDTASPLALLEELTLGDCRQDLATKLVKLFLGRGLAGRFLDYLTRREVARTMDPNTLFRSNSLASKSMEQFMKLVGMPYLHEVLKPVISRVFEEKKYMELDPCKMDLGRTRRISFKGALSEEQMRETSLGLLTGYLGPIVDAIVGSVGRCPPAMRLAFKQLHRRVEERFPQAEHQDVKYLAISGFLFLRFFAPAILTPKLFDLRDQHADPQTSRSLLLLAKAVQSIGNLGQQLGQGKELWMAPLHPFLLQCVSRVRDFLDRLVDVDGDEAGVPARALFPPSAIVREGYLLKRKEEPAGLATRFAFKKRYVWLSGETLSFSKSPEWQMCHSIPVSHIRAVERVDEGAFQLPHVMQVVTQDGTGALHTTYLQCKNVNELNQWLSALRKASAPNPNKLAACHPGAFRSARWTCCLQAERSAAGCSRTHSAVTLGDWSDPLDPDAEAQTVYRQLLLGRDQLRLKLLEDSNMDTTLEADTGACPEVLARQRAATARLLEVLADLDRAHEEFQQQERGKAALGPLGP
- binding [2]: binds
